Reference: patent publication US8486651B2, “Method for treating a disorder associated with Eya dysregulation by modulating Eya phosphatase activity” (Children's Hospital Medical Center, priority 2008, dated 2013)
Results are given in words; binding and its absence hold for the method and conditions named. Binding can be weak; no strength is given.

Protein sequences, listed by entry. Tags and fused reporters are not part of them. Lines headed by an entry give the natural chain unless they say otherwise; changes in a name come on top.
UniProt P97480: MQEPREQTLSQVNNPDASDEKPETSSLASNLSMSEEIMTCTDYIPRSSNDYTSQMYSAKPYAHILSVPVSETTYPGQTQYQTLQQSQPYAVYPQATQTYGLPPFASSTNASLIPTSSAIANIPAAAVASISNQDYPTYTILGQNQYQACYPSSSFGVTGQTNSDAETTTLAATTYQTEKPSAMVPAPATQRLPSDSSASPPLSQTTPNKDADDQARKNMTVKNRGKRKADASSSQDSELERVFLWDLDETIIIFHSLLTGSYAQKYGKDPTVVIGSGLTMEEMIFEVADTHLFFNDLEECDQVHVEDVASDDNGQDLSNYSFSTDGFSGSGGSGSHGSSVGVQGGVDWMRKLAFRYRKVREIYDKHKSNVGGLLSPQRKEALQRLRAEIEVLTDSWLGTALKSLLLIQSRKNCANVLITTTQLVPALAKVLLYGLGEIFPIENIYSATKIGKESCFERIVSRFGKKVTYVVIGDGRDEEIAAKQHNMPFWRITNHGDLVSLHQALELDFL

Target: T1, Six2 fragment derived from mouse Six protein (SEQ ID NO. 6) (mouse) (UniProt Q62232)
T1 sequence: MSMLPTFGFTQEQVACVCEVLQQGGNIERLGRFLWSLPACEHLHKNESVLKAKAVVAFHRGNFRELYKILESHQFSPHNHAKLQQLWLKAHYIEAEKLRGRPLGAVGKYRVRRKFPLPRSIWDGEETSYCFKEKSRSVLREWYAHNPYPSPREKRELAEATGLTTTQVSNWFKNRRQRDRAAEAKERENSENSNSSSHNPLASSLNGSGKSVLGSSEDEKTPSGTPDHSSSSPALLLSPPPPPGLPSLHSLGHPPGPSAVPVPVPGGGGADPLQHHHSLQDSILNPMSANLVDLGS
Assay: electrophoretic mobility shift assay, myogenin promoter DNA probe, Six2 alone or with Eya3(ED)

binding: binds
Substance: Eya3(ED) (from UniProt P97480) (enzyme)
